Consider two substances from paper PMC8193582.

Protein sequences, listed by entry. Tags and fused reporters are not part of them.
UniProt Q9ULV4: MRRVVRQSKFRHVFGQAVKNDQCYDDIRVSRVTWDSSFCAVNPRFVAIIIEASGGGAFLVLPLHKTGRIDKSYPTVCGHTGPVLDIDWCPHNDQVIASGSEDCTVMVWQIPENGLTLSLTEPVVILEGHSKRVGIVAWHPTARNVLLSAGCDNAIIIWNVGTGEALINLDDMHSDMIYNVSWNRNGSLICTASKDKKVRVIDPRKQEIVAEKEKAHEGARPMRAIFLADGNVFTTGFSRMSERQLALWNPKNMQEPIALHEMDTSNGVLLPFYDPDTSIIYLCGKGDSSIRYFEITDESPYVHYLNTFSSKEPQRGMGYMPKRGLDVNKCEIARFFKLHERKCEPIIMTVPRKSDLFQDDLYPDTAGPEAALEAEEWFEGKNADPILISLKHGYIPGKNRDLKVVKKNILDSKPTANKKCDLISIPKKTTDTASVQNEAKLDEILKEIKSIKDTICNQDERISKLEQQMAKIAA

Experiment [1] deals with T1, GFP-tagged MICAL1 (human) (UniProt Q8TDZ2).
T1 sequence: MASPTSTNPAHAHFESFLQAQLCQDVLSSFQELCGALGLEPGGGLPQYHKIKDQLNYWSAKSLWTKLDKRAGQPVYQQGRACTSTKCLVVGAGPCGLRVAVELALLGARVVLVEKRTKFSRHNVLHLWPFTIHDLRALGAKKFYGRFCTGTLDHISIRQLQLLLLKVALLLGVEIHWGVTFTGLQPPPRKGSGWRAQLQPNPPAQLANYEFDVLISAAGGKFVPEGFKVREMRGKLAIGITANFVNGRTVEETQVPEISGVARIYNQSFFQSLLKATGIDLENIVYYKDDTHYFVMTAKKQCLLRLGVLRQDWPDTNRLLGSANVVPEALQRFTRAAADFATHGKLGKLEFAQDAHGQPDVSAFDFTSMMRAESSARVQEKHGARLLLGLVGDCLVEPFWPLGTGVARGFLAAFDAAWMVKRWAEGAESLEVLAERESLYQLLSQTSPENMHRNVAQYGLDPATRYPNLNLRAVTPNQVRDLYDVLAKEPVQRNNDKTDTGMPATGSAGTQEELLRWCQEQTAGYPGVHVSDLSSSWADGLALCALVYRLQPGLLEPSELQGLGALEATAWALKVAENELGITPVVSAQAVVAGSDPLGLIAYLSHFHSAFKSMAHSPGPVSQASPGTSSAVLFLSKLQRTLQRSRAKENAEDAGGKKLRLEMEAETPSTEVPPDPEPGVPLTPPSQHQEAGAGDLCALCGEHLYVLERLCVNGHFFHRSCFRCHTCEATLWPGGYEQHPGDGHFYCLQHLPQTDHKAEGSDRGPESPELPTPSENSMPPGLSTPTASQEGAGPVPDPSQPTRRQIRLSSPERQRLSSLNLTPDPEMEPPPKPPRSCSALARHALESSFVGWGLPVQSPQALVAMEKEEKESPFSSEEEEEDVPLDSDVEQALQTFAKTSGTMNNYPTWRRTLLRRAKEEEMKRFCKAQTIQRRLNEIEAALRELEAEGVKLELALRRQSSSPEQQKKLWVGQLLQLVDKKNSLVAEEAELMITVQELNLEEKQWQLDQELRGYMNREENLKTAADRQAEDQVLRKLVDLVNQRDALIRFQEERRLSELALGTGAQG
In words: co-IP; GFP-Trap agarose bead pulldown from lysates of HeLa cells stably expressing the GFP-tagged bait; cells treated with 200 nM Latrunculin A for 1 h; lysis buffer 50 mM Hepes pH 7.5, 150 mM NaCl, 1.5 mM MgCl2, 1 mM EGTA, 1% Triton X-100, 10% glycerol, 200 nM Latrunculin A; read by immunoblot. (In general: A western blot detects proteins with antibodies after separation by electrophoresis.)

The target of experiment [2] is ARPC1B-TEV-STREP (recombinant) (human) (UniProt O15143). In words: co-purification (Strep affinity, cation exchange, size exclusion); seven subunits co-expressed in Sf21 cells from three baculoviruses; captured by the double STREP tag on ARPC1A/ARPC1B (StrepTrap HP), then Mono S and Superose12; fractions containing all seven subunits pooled.

These are yes or no findings as the source states them, for the method shown. For some assays here: In cells and extracts the contact can be indirect. For some assays here: Tags and fused reporters may be left off the sequences shown. Some entries that bind do so weakly or less than the wild type.

For the substance “coronin 1C (endogenous) (from UniProt Q9ULV4 1-474)”, the binding result in experiment [1] was “no binding”.

In the case of “ARPC5L (recombinant) (from UniProt Q9BPX5 1-153)”, in experiment [2], the binding entry is listed as “binds”.
